Laboratory results from the supplement of paper PMC3334620.
Over roughly 33,000 sequences, “E-score (-0.5 to 0.5)” has its median near -0.0014; the highest 2% begin near 0.25. This is one part of the list.

Biological target: T1, Cad1 (UniProt P24813)
T1 sequence: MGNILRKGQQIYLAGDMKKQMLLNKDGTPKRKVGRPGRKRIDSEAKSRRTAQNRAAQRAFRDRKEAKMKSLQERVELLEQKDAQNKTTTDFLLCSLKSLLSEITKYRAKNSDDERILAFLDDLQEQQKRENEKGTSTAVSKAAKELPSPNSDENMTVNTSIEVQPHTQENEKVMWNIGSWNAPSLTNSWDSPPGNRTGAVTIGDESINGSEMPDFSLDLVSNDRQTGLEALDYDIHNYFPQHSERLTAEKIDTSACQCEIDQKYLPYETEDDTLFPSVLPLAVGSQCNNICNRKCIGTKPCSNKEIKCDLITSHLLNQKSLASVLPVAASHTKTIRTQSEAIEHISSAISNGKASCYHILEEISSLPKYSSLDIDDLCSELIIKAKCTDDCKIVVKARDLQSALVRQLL
Assay: PBM E-score (8-mer binding enrichment) (E-score (-0.5 to 0.5)); higher = stronger / more preferred TF binding
Settings: protein concentration: 100 nM; construct: GST-full length
In short: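 PURExpress in vitro transcription/translation supplied GST-tagged yeast transcription factors, either full-length or DNA-binding domain. Applied at about 100-200 nM to universal all-10-mer Agilent arrays double-stranded by primer extension, the bound protein was detected with fluorescent anti-GST. E-scores, modified Wilcoxon-Mann-Whitney statistics, were given by the Universal PBM Analysis Suite to ungapped eight-base words pooled with their reverse complements after masliner normalisation.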

Sequence	PBM E-score
AAGAGAAC	0.0515
AACTCGCA	0.0861
GCACATTA	0.117
AGGAGGGG	-0.146
AAATTGAA	-0.0338
CTCACGAA	0.0339
TAGAGATA	0.0209
CCGACGTC	0.057
ACTGATAA	0.172
CTATTCTC	0.0992
CTGGGCAC	-0.182
CATACTAA	0.157
ACTCCTCT	-0.186
CATAGTGC	0.0541
GGTTTGAA	0.195
CGCGGAGC	-0.241
ATATTCCG	0.165
AAGTTAGC	0.129
CAACGTAG	0.059
ATACGACG	0.0655
GCAGACGA	0.0685
CCGTTAGA	0.0816
TGTGCACA	-0.0189
CCCGTTGC	-0.176
GCTGCGAC	-0.11

Sequence	PBM E-score
GCAAGTTA	-0.0329
GCGGCACC	0.0327
CGCTCTTA	0.216
CTGACCCA	-0.232
ACGACAAT	0.126
AAGGTGGT	-0.019
ACCACTAA	0.228
GCATGATA	0.124
CCAGTCAG	-0.25
CGAACAAG	0.128
ATTAGAGA	-0.033
AGTGTGTC	0.103
CGCAAGGA	0.107
GGGCTATA	-0.149
ACACCCGT	-0.0752
GTCCGAAA	0.177
GATAGAGA	-0.0868
ACCGGAAT	-0.0448
CAAATGAG	0.0584
GAACGGAA	-0.0319
AGGCCGCG	0.0156
CAAACTCG	0.0163
AGTATGAG	0.0653
CGTTAGAC	-0.0326
ATTCGCAC	0.00983

Nothing new here: entries from further up.
Sequence	PBM E-score
CATAGTGC	0.0541
GGTTTGAA	0.195
CGCGGAGC	-0.241
ATATTCCG	0.165
AAGTTAGC	0.129
CAACGTAG	0.059
ATACGACG	0.0655

The results go on:

Sequence	PBM E-score
AATGGTTG	0.0273
AAAACGAA	0.133
AGCCCGTC	-0.217
CGGATGCC	0.136
AATATTGG	0.0135
CACATATA	0.0867
TGAAGTCA	-0.0532
CATTGATA	0.124
GCCACCCC	-0.206
ACAGACGT	0.0529
CATGAACA	0.152
AATTCTCC	0.13
CCCTGGAC	0.00363
GCCTATTA	0.0599
CACGACAG	0.0344
AATAACAG	0.0939
CAACAGGA	-0.182
ACCGCACT	-0.0733
CCTATTTA	0.139
AGGAACCC	-0.107
ACCTCGCT	0.0401
ATACCCGC	0.0369
CTACGGGA	0.0201
AGTCGAAG	-0.0954
GTTCGAAC	0.224

Sequence	PBM E-score
CTTAAGGA	0.0352
ATGCTCTC	-0.0595
ACGTGGCG	-0.0807
ATCGAAAG	0.0605
GGTGCACA	-0.211
AAGACAGA	0.129
AAACATTT	0.1
TATATAGA	0.0931
AGGTGCGG	-0.0567
ACTTAACC	0.0171
GAGCTCCC	-0.297
ATCAGGAG	0.0619
AGCGCCAC	-0.0814
AAAAGATC	-0.12
TGAAGTAA	-0.0446
TACCTGGA	0.126
AGCTTCAC	-0.0133
CTTATTCC	0.0685
CGGCGACC	-0.144
ATAGAGAC	-0.0816
ATACAGAC	0.0544
GTAAGTAA	-0.0957
CGAGTAGC	0.172
GAGATAAC	0.159
GTAGATCA	0.0116

Sequence	PBM E-score
CCCTGTCG	-0.127
AGCCTAAA	0.0556
ATCAGGTA	0.0427
CACATGCA	-0.0306
ATAGTGAG	0.0376
AAGTGGAC	-0.097
TGCTATAA	-0.196
AATAAATT	0.282
ACATGCGC	0.166
AAGGGGAC	-0.15
ATCTACAA	-0.00702
GTAATCTA	0.268
CACCATGG	-0.247
ACGCGCTC	0.125
AGTTTCAG	-0.11
ACCGGTCT	-0.314
AAGGACGC	-0.0361
ATGAAAAA	0.27
CCGGACCC	-0.145
CAGTTAAG	0.0983
ACGGCTAC	0.0723
ACCAACGT	0.0535
CGTGAAGC	-0.0863
TGAGGAAA	-0.0123
AAGCGCGT	0.149

Sequence	PBM E-score
AAGAGTAG	-0.0348
ACATTCGC	0.0324
AAGTGGGT	0.077
ACTCACTA	0.0828
ATCGGCAG	-0.128
GTAGGCTA	0.0272
ATACAACA	0.184
ACAAACGG	0.0977
AGAGCTCC	-0.259
ATAGTGGA	0.143
CATCGTGA	-0.0296
CGTTCGTC	0.248
CTGTGAAC	0.137
CTTTAGCC	-0.00983
GGCCCCTA	-0.28
CCCTTATC	0.0481
TAGGTCGA	0.131
GACAACGA	0.0671
ATCAATAC	0.0887
GAGATGCC	-0.136
CCAGATGG	-0.087
CCATCTAC	-0.105
CTCGACGC	0.0779
TAAGATTA	0.155
CTGTACAC	-0.0207

Sequence	PBM E-score
ACGTTCAC	-0.0258
ACTATAGC	-0.169
CGGAAATC	0.147
AATGGCAA	-0.11
AGACGCTA	-0.0373
CCCGCCTC	-0.111
CCCGGAAG	-0.097
CATAGAGA	-0.0244
CCGGACAG	0.0494
ACCACCGC	0.0188
CAATTACA	0.241
CCTAGCAC	-0.199
AATGACAC	-0.0164
GGTAGGAC	-0.0374
AGGTCACG	-0.126
ATATTAGC	0.178
ATAGCGGC	0.0738
GGCACTCA	-0.28
ATAGGGAA	-0.0908
CGACAAGA	0.0598
CTCACTCA	0.0891
TGCGCGCA	0.301
